Taken from: PubChem BioAssay AID720505 (Drosophila RNAi Screening Center, 2013)
The screen tested about 20,000 reagents; shown is a random part of those that have a named target and a result. Of all reagents, about 2,100 (10%) were called active. 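Raw plate signals without normalisation; calls rest on control-based scores that were not deposited; replicate 2 separates called from uncalled poorly.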 The numbers tell different reagents against one gene apart. A plus sign joins genes that one reagent is predicted to hit. Not given: the amount of reagent, the time to read-out.

Test: 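Genes needed for store-operated calcium entry in fly cells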 (primary screen)
System: Drosophila S2R+ cells
Reagents: long dsRNA against Drosophila genes
Treatment: thapsigargin (2 µM) in calcium-free buffer to empty internal stores, then 2 mM calcium added back
Read-out: 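Stores emptied by 2 µM thapsigargin without calcium, then 2 mM calcium re-added; fluo-4 fluorescence followed by FLIPR in 384-well plates, per-well averaged endpoint, raw; two screen passes, some wells retested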
Reading the numbers: calcium signal and retest calcium signal: higher = more calcium entry after store depletion
Call rule: 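Knock-downs counted as hits when calcium entry dropped relative to STIM1 positive and Rho1 negative controls present on each plate; roughly 1500 genes called, with reductions of differing size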
Calls: active = called as lowering calcium entry; inactive = not called

target gene | reagent | calcium signal, replicate 1 | calcium signal, replicate 2 | retest calcium signal, replicate 1 | retest calcium signal, replicate 2 | outcome
loj (logjam) | 1 | 97 | 140 | – | – | inactive
CG7251 | 1 | 135 | 263 | – | – | inactive
CG15865 | 1 | 108 | 142 | – | – | inactive
CG13725 | 1 | 93.2 | 128 | – | – | inactive
CCDC53 (Coiled-coil domain containing 53) | 1 | 118 | 141 | – | – | inactive
jef (jet fuel) | 1 | 109 | 177 | – | – | inactive
Pdha (Pyruvate dehydrogenase E1 alpha subunit) | 1 | 235 | 121 | – | – | inactive
CG2790 | 1 | 92.6 | 119 | – | – | inactive
Diap2 (Death-associated inhibitor of apoptosis 2) | 1 | 126 | 132 | – | – | inactive
betaGlu (beta glucuronidase) | 1 | 102 | 156 | – | – | inactive
Rab3-GEF (Rab3 GDP-GTP exchange factor) | 1 | 64.5 | 130 | – | – | active
Rab3-GEF (Rab3 GDP-GTP exchange factor) | 2 | 88.2 | 112 | – | – | inactive
Rab3-GEF (Rab3 GDP-GTP exchange factor) | 3 | 81.2 | 151 | – | – | inactive
CG33225 | 1 | 92.6 | 6973 | – | – | inactive
Ube4A (Ubiquitination factor E4A) | 1 | 119 | 248 | – | – | inactive
loqs (loquacious) | 1 | 122 | 84.9 | – | – | inactive
Alg14 (ALG14, UDP-N-acetylglucosaminyltransferase subunit) | 1 | 72.8 | 133 | – | – | active
sky (skywalker) | 1 | 96 | 108 | – | – | inactive
sky (skywalker) | 2 | 98.4 | 103 | – | – | inactive
sky (skywalker) | 3 | 214 | 112 | – | – | inactive
CG15822 | 1 | 37 | 85.7 | – | – | active
CG15822 | 2 | 76.4 | 87.7 | – | – | inactive
HLH54F | 1 | 158 | 174 | – | – | inactive
pan (pangolin) | 1 | 101 | 110 | – | – | inactive
pan (pangolin) | 2 | 130 | 192 | – | – | inactive
mri (mrityu) | 1 | 141 | 102 | – | – | inactive
RPA2 (Replication protein A2) | 1 | 81.2 | 89.2 | – | – | inactive
Vps2 (Vacuolar protein sorting 2) | 1 | 97.3 | 181 | – | – | inactive
CG6685 | 1 | 88.2 | 101 | – | – | inactive
fau | 1 | 90.5 | 99.2 | – | – | inactive
fau | 2 | 141 | 87.9 | – | – | inactive
fau | 3 | 142 | 99.5 | 5716 | 139 | inactive
fau | 4 | 96.8 | 246 | – | – | inactive
BEAF-32 (Boundary element-associated factor of 32kD) | 1 | 135 | 106 | – | – | inactive

No new results follow: an excerpt of the list.
target gene | reagent | calcium signal, replicate 1 | calcium signal, replicate 2 | retest calcium signal, replicate 1 | retest calcium signal, replicate 2 | outcome
CG15822 | 2 | 76.4 | 87.7 | – | – | inactive
HLH54F | 1 | 158 | 174 | – | – | inactive
pan (pangolin) | 1 | 101 | 110 | – | – | inactive
pan (pangolin) | 2 | 130 | 192 | – | – | inactive
mri (mrityu) | 1 | 141 | 102 | – | – | inactive
RPA2 (Replication protein A2) | 1 | 81.2 | 89.2 | – | – | inactive
Vps2 (Vacuolar protein sorting 2) | 1 | 97.3 | 181 | – | – | inactive
CG6685 | 1 | 88.2 | 101 | – | – | inactive
fau | 1 | 90.5 | 99.2 | – | – | inactive

More records follow:
target gene | reagent | calcium signal, replicate 1 | calcium signal, replicate 2 | retest calcium signal, replicate 1 | retest calcium signal, replicate 2 | outcome
Hou (Houki) | 1 | 180 | 165 | – | – | inactive
Hou (Houki) | 2 | 87.8 | 235 | – | – | inactive
CG30037 | 1 | 94.2 | 246 | – | – | inactive
Prp38 (pre-mRNA processing factor 38) | 1 | 153 | 114 | – | – | inactive
CG34234 + Dh44-R2 | 1 | 126 | 183 | – | – | inactive
CG13324 | 1 | 81 | 130 | – | – | inactive
foxo (forkhead box, sub-group O) | 1 | – | – | – | – | active
foxo (forkhead box, sub-group O) | 2 | 88.6 | 103 | – | – | inactive
Abd-B (Abdominal B) | 1 | 140 | 167 | – | – | inactive
Abd-B (Abdominal B) | 2 | 133 | 182 | – | – | inactive
CG10969 | 1 | 52.2 | 81.1 | – | – | inactive
dnt (doughnut on 2) | 1 | 103 | 128 | – | – | inactive
Tim17a2 | 1 | 102 | 156 | – | – | inactive
CG14715 | 1 | 124 | 131 | – | – | inactive
CG5347 | 1 | 68 | 129 | – | – | active
CG30394 | 1 | 132 | 122 | – | – | inactive
CG30394 | 2 | 153 | 127 | – | – | inactive
CG14073 | 1 | 85.6 | 128 | – | – | inactive
Fkbp14 (FK506-binding protein 14) | 1 | 141 | 98.1 | – | – | inactive
CG12782 | 1 | 69.2 | 131 | – | – | inactive
CG14712 | 1 | 90.2 | 73.5 | – | – | inactive
CG6044 | 1 | 71.5 | 133 | – | – | inactive
CG12347 | 1 | 69 | 148 | – | – | active
Edem2 (ER degradation enhancer, mannosidase alpha-like 2) | 1 | 127 | 105 | – | – | inactive
Myd88 | 1 | 193 | 94.9 | – | – | inactive
CG15570 | 1 | 166 | 121 | – | – | inactive
Him (Holes in muscle) | 1 | 97.1 | 137 | – | – | inactive
sit (stuck in traffic) | 1 | 117 | 102 | – | – | inactive
cas (castor) | 1 | 120 | 138 | – | – | inactive
CG15198 | 1 | 99.6 | 82.7 | – | – | inactive
CG1888 | 1 | 151 | 183 | – | – | inactive
Sras (severas) | 1 | 126 | 76 | – | – | inactive
GluRIIA (Glutamate receptor IIA) | 1 | 123 | 110 | – | – | inactive
CG15646 | 1 | 109 | 165 | – | – | inactive
vig (vasa intronic gene) | 1 | 109 | 140 | 128 | 158 | inactive
vig (vasa intronic gene) | 2 | 130 | 116 | – | – | inactive
vig (vasa intronic gene) | 3 | 195 | 112 | – | – | inactive
Obp28a (Odorant-binding protein 28a) | 1 | 40.9 | 130 | – | – | active
Btk (Bruton tyrosine kinase) | 1 | 182 | 141 | – | – | inactive
Btk (Bruton tyrosine kinase) | 2 | 141 | 307 | – | – | inactive
Btk (Bruton tyrosine kinase) | 3 | 106 | 167 | – | – | inactive
CG17646 | 1 | 103 | 300 | – | – | inactive
Pss (Phosphatidylserine synthase) | 1 | 104 | 170 | – | – | inactive
CG14316 | 1 | 155 | 139 | – | – | inactive
CG31460 | 1 | 118 | 163 | – | – | inactive
CG32537 | 1 | 172 | 139 | – | – | inactive
Galphas (G protein alpha subunit s) | 1 | 152 | 118 | – | – | inactive
Ubc6 (Ubiquitin conjugating enzyme 6) | 1 | 78.7 | 92 | – | – | active
CG13458 | 1 | 106 | 86.5 | – | – | inactive
